“And” between values parts separate entries of the source, which are not always exact repeats. Equal entries are not always repeated. The hits were mostly taken out for another list; the other results follow. Records with an inconclusive call do not appear. The source made the active and inactive calls. The call rests on the fitted dose curve; in most records, active means well fitted inhibition curve with a large enough effect; inconclusive means small, poorly fitted or top-dose-only effect; inactive means no such curve, though single readings can be large or run the other way.

The chains behind the UniProt entries cited, without tags or fusion partners. Where a name states a change or a piece, a line headed by the entry shows the natural chain unless it says otherwise.
UniProt O95398: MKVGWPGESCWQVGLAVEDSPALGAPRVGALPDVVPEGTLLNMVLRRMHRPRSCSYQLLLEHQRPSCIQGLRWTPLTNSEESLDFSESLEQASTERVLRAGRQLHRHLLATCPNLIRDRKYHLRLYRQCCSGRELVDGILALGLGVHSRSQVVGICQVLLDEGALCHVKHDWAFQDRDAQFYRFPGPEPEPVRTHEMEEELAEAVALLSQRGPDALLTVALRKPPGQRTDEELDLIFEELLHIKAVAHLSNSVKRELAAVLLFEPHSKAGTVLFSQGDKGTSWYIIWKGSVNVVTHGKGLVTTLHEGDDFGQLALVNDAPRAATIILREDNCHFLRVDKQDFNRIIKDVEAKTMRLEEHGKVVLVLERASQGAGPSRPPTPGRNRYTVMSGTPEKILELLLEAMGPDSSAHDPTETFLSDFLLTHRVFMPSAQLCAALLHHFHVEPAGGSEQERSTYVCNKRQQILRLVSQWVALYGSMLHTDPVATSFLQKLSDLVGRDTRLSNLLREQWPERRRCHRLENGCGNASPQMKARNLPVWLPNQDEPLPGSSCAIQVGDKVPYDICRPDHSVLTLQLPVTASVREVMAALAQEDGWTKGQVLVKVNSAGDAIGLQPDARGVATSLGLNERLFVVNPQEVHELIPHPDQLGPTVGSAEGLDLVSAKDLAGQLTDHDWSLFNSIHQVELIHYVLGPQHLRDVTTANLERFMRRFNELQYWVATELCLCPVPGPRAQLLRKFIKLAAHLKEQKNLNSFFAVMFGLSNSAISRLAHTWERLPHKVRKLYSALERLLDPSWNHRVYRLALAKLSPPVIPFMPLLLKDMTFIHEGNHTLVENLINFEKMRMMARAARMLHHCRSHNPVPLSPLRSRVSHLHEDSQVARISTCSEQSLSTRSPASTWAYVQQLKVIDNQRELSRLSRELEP

This test deals with Rap guanine nucleotide exchange factor 3 (Homo sapiens) (UniProt O95398). Put plainly: Validation qHTS for antagonist of cAMP-regulated guanine nucleotide exchange factor 3 (EPAC1).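 Further: plate controls were DMSO for no effect and ATA control for full effect; nearly all actives have a fitted effect of over 75% in size.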 To be noted: EPAC1 Rap1B-BODIPY-GDP exchange, fluorescence. From the text: Assay Provider (PI): Xiaodong Cheng Ph.D.
The University of Texas Medical Branch, […], TX
In multi-cellular eukaryotic organisms, the effects of cAMP are transduced by two ubiquitously-expressed intracellular cAMP receptors, the classic protein kinase A/cAMP-dependent protein kinase (PKA/cAPK) and the more recently discovered exchange protein directly activated by cAMP/cAMP-regulated guanine nucleotide exchange factor (EPAC/cAMP-GEF). Both PKA and EPAC are ubiquitously expressed in all tissues, and an increase in intracellular cAMP levels will lead to the activation of both PKA and EPAC. Therefore, careful dissections of the individual role and relative contribution of EPAC and PKA within the overall cAMP signaling in various model systems are critical for further elucidating the mechanism of cAMP signaling. To date no EPAC-specific antagonists and agonist, as well as isoform-specific agonists have been reported, and developing EPAC-specific pharmacological probes to determine the physiological functions that EPAC play in the overall cAMP-mediated signaling remains a major challenge within the research field. Furthermore, identified regulators of EPAC may lead to new mechanism-based therapeutic strategies specifically targeting the EPAC / cAMP-signaling components as EPAC has been implicated to play important roles in major human pathological conditions such as diabetes, heart disease, and cancer.
This qHTS will be used to screen the Molecular Libraries Small Molecule Repository (MLSMR) as a concentration-titration series using the NCGC unique quantitative screening (qHTS) platform to find activators for EPAC1. In addition, this assay will also be used as a counterscreen for the EPAC2 qHTS. This fluorescent based assay is developed and validated for EPAC1 that measures exchange using EPAC effector Rap1 complex with BODIPY-GDP, a GDP analog with a tethered fluorophores. Activators are identified by monitoring the change in fluorescence signal as the exchanged free BODIPY-GDP has a reduced fluorescence compared to Rap1-bound BODIPY-GDP. Increase in signal (activation) is the desired outcome for the EPAC1 agonist while no activity in this assay is desired for the EPAC2 agonist counterscreen.
[1] de Rooij, J., Zwartkruis, F. J., Verheijen, M. H., Cool, R. H., Nijman, S. M., Wittinghofer, A., and Bos, J.L. (1998) Nature 396, 474-477.
Briefly, three uL of reagents (100 nM EPAC1, 250 nM RAP1B-BODIPY-GDP, 50 uM GDP) were dispensed into a 1536-well Greiner black solid-bottom medium binding assay plate. Controls and test compounds (23 nL) were transferred to the plate via a Kalypsys pin tool equipped with a 1536-pin array. […] The assay plates were read at 5 minute intervals for 30 minutes in the ViewLux plate reader using 480nm excitation and 540nm emission filters. […]
Background: Quantitative high-throughput screening tests each substance at several concentrations.

Consider `Nc1ccc(N)c([N+](=O)[O-])c1`, for which the activity change, negative = inhibition (at 320 µM (top of the series)) is inactive: -7.03%.

For the compound `Cc1c(C(=O)NN2CCCCC2)nn(-c2ccc(Cl)cc2Cl)c1-c1ccc(I)cc1`, the activity change, negative = inhibition (at 150 µM (top of the series)) is inactive: -7.76%.

For `Cc1cccc(CCN2CCC(C(=O)c3ccc(NS(C)(=O)=O)cc3)CC2)n1`, the activity change, negative = inhibition is, setting by setting: (at 150 µM (top of the series)) inactive: 18.3% and inactive: -1.26%; (at 201 µM (top of the series)) inactive: 31.8%.

The record behind these values is PubChem BioAssay AID1645882 (National Center for Advancing Translational Sciences (NCATS), 2021).
